The target in the assay is inosine monophosphate dehydrogenase 1 (IMPDH1) (mouse (endogenous in retina)) (UniProt P50096). Nature of the assay: co-IP; Dynabeads coated with IMPDH1 antibody (10 ug) added to the lysate of 6 dark-adapted wild-type mouse retinas; eluate probed by Western blot for IMPDH1 and PRKAA2. A general note: In western blotting, separated proteins are transferred to a membrane and probed.

By UniProt entry, the sequences of proteins in these tests, tags left out.
UniProt P50096: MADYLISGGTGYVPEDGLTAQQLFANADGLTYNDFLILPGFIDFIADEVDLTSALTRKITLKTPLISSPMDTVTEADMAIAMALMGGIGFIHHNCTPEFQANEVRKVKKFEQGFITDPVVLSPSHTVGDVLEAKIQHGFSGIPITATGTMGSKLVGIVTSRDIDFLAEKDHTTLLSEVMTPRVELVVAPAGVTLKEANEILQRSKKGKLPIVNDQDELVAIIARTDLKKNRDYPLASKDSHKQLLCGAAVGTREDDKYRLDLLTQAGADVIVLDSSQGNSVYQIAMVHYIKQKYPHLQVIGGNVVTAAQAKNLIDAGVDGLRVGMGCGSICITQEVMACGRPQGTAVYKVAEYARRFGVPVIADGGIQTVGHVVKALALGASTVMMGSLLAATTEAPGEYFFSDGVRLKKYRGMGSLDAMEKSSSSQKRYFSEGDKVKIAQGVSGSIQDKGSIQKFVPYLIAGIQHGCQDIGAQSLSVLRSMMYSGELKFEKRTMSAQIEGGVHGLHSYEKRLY
UniProt Q8BRK8: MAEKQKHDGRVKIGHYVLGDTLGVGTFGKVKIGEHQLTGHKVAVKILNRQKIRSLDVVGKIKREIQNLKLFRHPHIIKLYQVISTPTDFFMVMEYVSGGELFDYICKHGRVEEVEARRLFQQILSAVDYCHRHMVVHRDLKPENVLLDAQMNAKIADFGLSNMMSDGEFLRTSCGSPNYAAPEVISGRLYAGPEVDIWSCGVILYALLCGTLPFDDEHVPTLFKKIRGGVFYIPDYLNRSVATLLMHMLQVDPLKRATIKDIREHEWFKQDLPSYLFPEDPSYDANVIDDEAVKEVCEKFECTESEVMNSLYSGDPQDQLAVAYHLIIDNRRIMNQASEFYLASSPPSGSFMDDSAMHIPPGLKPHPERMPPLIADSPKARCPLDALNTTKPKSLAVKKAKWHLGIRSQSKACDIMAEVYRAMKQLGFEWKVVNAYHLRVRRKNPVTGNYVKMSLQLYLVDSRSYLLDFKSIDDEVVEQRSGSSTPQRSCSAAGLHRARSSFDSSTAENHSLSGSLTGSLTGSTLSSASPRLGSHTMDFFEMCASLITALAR

These are yes or no findings as the source states them, for the method shown. In cells and extracts the contact can be indirect. Some binding calls cover weakened binding; strength is not graded here.

With “AMP-activated protein kinase catalytic subunit alpha-2 (PRKAA2) (from UniProt Q8BRK8 1-552) (enzyme)”, the binding entry is “binds”.

Values taken from paper PMC11143937.
